From paper doi:10.1101/2024.03.04.583404

Molecular target: T1, DCAP-2::3XFLAG (C. elegans (endogenous in embryos)) (UniProt O62255)
T1 sequence: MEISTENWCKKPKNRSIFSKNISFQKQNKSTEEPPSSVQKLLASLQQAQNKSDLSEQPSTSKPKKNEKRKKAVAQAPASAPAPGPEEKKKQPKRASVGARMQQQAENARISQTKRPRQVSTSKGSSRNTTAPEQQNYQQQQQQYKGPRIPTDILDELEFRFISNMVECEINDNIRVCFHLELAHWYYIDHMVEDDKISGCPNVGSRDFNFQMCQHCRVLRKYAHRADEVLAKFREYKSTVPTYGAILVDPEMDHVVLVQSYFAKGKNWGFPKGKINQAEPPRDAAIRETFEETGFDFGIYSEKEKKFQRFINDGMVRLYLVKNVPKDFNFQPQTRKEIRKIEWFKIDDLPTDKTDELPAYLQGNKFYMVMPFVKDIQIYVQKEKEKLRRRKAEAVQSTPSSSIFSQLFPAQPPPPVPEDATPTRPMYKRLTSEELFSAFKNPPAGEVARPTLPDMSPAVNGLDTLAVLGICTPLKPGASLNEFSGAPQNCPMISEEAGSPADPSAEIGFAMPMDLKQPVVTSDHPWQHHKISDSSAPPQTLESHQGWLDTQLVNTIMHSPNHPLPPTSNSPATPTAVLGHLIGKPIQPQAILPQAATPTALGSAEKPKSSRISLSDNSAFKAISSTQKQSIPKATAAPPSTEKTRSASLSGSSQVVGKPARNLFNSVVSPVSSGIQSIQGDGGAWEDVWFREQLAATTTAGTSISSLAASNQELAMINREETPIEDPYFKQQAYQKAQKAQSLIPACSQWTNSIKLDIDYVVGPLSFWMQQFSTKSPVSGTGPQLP
Experiment: affinity purification with mass spectrometry

B1: CAR-1 (protein, UniProt Q9XW17 1-340)
chain: MSNQTPYIGSKISLISKLDIRYEGILYTVDTNDSTIALAKVRSFGTEKRPTANPVAARDDVYEYIIFKASDIKDLIVCDTPKMANIGGGLPYDPAIISVSSRSAPASDGAPAASAGSSRAGTPSRNSPLGQIIQNQRPGRGGYQQNFQANRGYNNYRGGFAGGYNNQRGHNNYGVPRVNHREKLKFESDFDFEKANEKFQEVLVDNLEKLNIEDKAEPEVEEKKDAAFYDKKTSFFDNISCESLEKAEGKTGRPDWKKERETNQETFGHNAVRSLNYRRGFGGRGRGGNRGYGGYNNGYQHQHQHRGGYNGGYRQNNGGYRRGGYAPRDNQGNTAAAAEQ
binding: binds

Results are given in words; binding and its absence hold for the method and conditions named. In cells and extracts the contact can be indirect. A yes stands for co-enrichment or nearness to the bait. Other partners may have been found. Tags and fused reporters may be left off the sequences shown.
